Earlier results in US9115213B2, “Phenotypic reversion of pancreatic carcinoma cells” (The Research Foundation of State University of New York, priority 2004, dated 2015).
Part of at least one peptide drawing is inferred or uncertain, most often the ends. Where a SMILES comes first, the peptide text is derived from it.

Test system: oncogenic mutant raf lacking the ras binding domain (RBD)
Details: cited from earlier work

CC[C@H](C)[C@H](NC(=O)[C@@H](NC(=O)[C@@H](NC(=O)[C@H](CCC(N)=O)NC(=O)[C@H](CCCCN)NC(=O)[C@H](CCCNC(=N)N)NC(=O)[C@H](Cc1ccc(O)cc1)NC(=O)[C@H](CO)NC(=O)[C@H](CC(=O)O)NC(=O)[C@H](CCC(=O)O)NC(=O)[C@@H](NC(=O)[C@@H](N)[C@@H](C)O)[C@@H](C)CC)C(C)C)C(C)C)C(=O)N[C@@H](CC(=O)O)C(=O)O [PNC-7, TIEDSYRKQVVID] (H-TIEDSYRKQVVID-OH)
oocyte maturation induced by oncogenic mutant raf lacking the RBD: no effect
